Article PMC2270309, “Insights into Mad2 Regulation in the Spindle Checkpoint Revealed by the Crystal Structure of the Symmetric Mad2 Dimer” (PLoS Biology, 2008)
Results are given in words; binding and its absence hold for the method and conditions named.

Protein sequences, listed by entry. Tags and fused reporters are not part of them. Lines headed by an entry give the natural chain unless they say otherwise; changes in a name come on top.
UniProt Q13257: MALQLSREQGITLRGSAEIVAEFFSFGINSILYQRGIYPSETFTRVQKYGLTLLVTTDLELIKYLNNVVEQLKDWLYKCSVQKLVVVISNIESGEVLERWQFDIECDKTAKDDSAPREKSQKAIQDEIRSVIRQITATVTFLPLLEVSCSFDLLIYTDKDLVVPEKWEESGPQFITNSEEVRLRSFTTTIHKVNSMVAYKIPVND

Experiments:
[1] = biological target: Mad2^R184E (human) (UniProt Q13257); test: NMR 1D 1H spectrum (line width of methyl peaks); high-field methyl region of the 1D 1H spectrum; 30 °C; 50 mM phosphate pH 6.8, 300 mM KCl, 1 mM DTT; both purified
[2] = biological target: Mad2^R184E (human) (UniProt Q13257); test: SEC; gel filtration of the high-salt peak (Q2) of anion exchange chromatography (holds the C-Mad2 conformer); both purified
[3] = biological target: Mad2^WT (wild-type human Mad2, untagged) (human) (UniProt Q13257); test: condition: only the low-salt peak (Q1), O-Mad2 conformer; SEC; gel filtration of the low-salt peak (Q1) of anion exchange chromatography (O-Mad2 conformer); both purified

| binding [1] | binding [2] | binding [3] | Substance |
| --- | --- | --- | --- |
| no binding | no binding | – | Mad2^R184E (from UniProt Q13257 1-205) |
| – | – | no binding | Mad2^WT (wild-type human Mad2, untagged) (from UniProt Q13257 1-205) |
